ChEMBL document CHEMBL1671695, “Specificity of induction of the vanA and vanB operons in vancomycin-resistant enterococci by telavancin” (Antimicrob Agents Chemother, 2010)
Values after ≈ are worked out from the molar mass of the structure shown.

Tested on: Enterococcus faecium
Assay: Antimicrobial activity against Enterococcus faecium ATCC 51559 by broth microdilution method
Format: functional
Outline: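 Broth microdilution MIC per CLSI-approved methods; strains maintained on tryptic soy agar with 5% sheep blood at 37°C.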

Which MIC does the source give for `CN[C@H](CC(C)C)C(=O)N[C@H]1C(=O)N[C@@H](CC(N)=O)C(=O)N[C@H]2C(=O)N[C@H]3C(=O)N[C@H](C(=O)N[C@H](C(=O)O)c4cc(O)cc(O)c4-c4cc3ccc4O)[C@H](O)c3ccc(c(Cl)c3)Oc3cc2cc(c3O[C@@H]2O[C@H](CO)[C@@H](O)[C@H](O)[C@H]2O[C@H]2C[C@](C)(N)[C@H](O)[C@H](C)O2)Oc2ccc(cc2Cl)[C@H]1O` [VANCOMYCIN] here?
The MIC was 1020 mg/L (≈ 707 µM).
